Measurements as given in PubChem BioAssay AID1347075 (National Center for Advancing Translational Sciences (NCATS), 2019).
The campaign covered roughly 400,000 compounds. About 5,500 (1.4%) were called active. The shares of active, inactive and inconclusive entries below differ from those in the screen. Calls follow the shape of the dose curve; as a rule, active = well fitted cell-killing curve with a large enough effect; inconclusive = small, poorly fitted or top-dose-only effect, or effect the other way; inactive = flat fitted curve, though single readings scatter. Potencies of inconclusive entries are doubtful fits and often do not repeat.

experiment: qHTS assay for MDR1-selective chemotherapeutics: Primary screen using the parental adenocarcinoma cell KB-3-1; conditions: KB-3-1 viability, CellTiter-Glo ATP luminescence, 72 h; activity change, negative = cytotoxic: at 46.1 µM (top of the series); also: nearly all actives have a fitted effect of over 60% in size
How it was run: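 72 h, 37 °C compound treatment of KB-3-1 parental cells; CellTiter-Glo added, 10 min, luminescence read. Data corrected against DMSO-only plates and normalized before curve fitting.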
% is scaled to controls: 0 for no effect and ±100 for the full control effect; potency is read from the fitted curve at half-maximal effect.

Structure (SMILES)	Potency	activity change, negative = cytotoxic
O=c1[nH][nH]c2c1[C@H](c1ccc(Cl)cc1)O[C@H](C1CCCC1)C2	inconclusive: 23.1 µM [cytotoxic, partial curve, poor fit]	–
O=c1c2ccccc2nc(-c2cccc(Cl)c2)n1O	inconclusive: 29.1 µM [cytotoxic, single point]	–
C[C@@H]1CN([C@H](C)CO)C(=O)CCCn2nncc2CO[C@H]1CN(C)C(=O)c1ccncc1	–	inactive: 0%
COc1ccc(C(=O)CCN2CCc3cc(OC)c(OC)cc3C2)cc1	–	inactive: 1.8%
O=C(NCC(c1ccco1)N1CCc2ccccc21)C(=O)Nc1ccccc1F (stereo not drawn)	active: 14.6 µM	–
O=C(N/N=C/c1cccnc1)c1cc(-c2ccc(Br)cc2)nc2ccccc12	inconclusive: 25.9 µM [cytotoxic, partial curve, poor fit]	–
O=C(NNC(=O)c1ccc(SCC2CCCO2)c([N+](=O)[O-])c1)c1ccc(Cl)c([N+](=O)[O-])c1 (stereo not drawn)	–	inactive: -16.6%
CN(CCCn1cnc2c(OCc3ccccc3)ncnc21)Cc1ccco1	inconclusive: 29.1 µM [rising, single point]	–
COC(=O)c1ccc2nc(-c3cccc(Cl)c3)c(Cc3cccc(F)c3)n2c1	–	inactive: -5.43%
CCN(CC)C(=O)CSc1nc2ccccc2c(=O)n1CC1CCCCC1	inconclusive: 29.1 µM [cytotoxic, single point]	–
O=C(CC1SC(N2CCCCC2)=NC1=O)Nc1cccc(C(=O)Nc2ncccc2O)c1 (stereo not drawn)	inconclusive: 18.4 µM [cytotoxic, single point]	–
COc1ccc(NC(=O)CSC2=C(C#N)C(c3ccco3)C3=C(CCCC3=O)N2)c(OC)c1 (stereo not drawn)	–	inactive: 20.9%
CC1CCCC(C)N1C(=O)COC(=O)c1ccc([N+](=O)[O-])o1 (stereo not drawn)	inconclusive: 29.1 µM [rising, single point]	–
CC(=O)Nc1ccc(S(=O)(=O)N2CCN(S(=O)(=O)c3ccccc3)CC2)cc1	–	inactive: -2.82%
CC1=CC(=C(c2ccc(N)cc2)c2ccc(N)cc2)C=CC1=N	active: 2.31 µM	–
COc1ccc(Cc2nnc(N/N=C/c3ccc(O)cc3O)[nH]c2=O)cc1OC	inconclusive: 13 µM [cytotoxic, partial curve, poor fit]	–
COC(=O)c1ccccc1NC(=O)CCn1c(=O)oc2ccccc21	–	inactive: 1.84%
CCN(CC)CCCN(Cc1cc2cc3c(cc2[nH]c1=O)OCCO3)C(=O)Nc1ccccc1	inconclusive: 23.1 µM [cytotoxic, single point]	–
COc1ccc(-c2c[n+]3c(n2-c2ccccc2)SCC3)cc1OC	–	inactive: 0.191%
Cc1ccc(-n2c(C)cc(/C([O-])=C(/C(=S)Nc3ccc(F)c(Cl)c3)[n+]3ccccc3)c2C)cc1	inconclusive: 23.1 µM [cytotoxic, single point]	–
C[C@@H]1CCCCO[C@H](CN(C)Cc2ccc(Cl)c(Cl)c2)[C@@H](C)CN([C@H](C)CO)C(=O)c2cc(N(C)C)ccc2O1	inconclusive: 29.1 µM [cytotoxic, single point]	–
CC(C)C[C@H]1CN(CCCC[C@H]2CNC(=O)C(=O)N2CC2CCCCC2)C(=O)C(=O)N1CCc1ccccc1	–	inactive: 15.8%

Structure (SMILES)	Potency	activity change, negative = cytotoxic
COc1ccc(C(=O)Nc2cc([N+](=O)[O-])ccc2N2CCCC2)cc1	–	inactive: -1.07%
CCOC(=O)c1sc2nc(C)nc(NCc3ccc(Cl)cc3)c2c1C	inconclusive: 14.6 µM [cytotoxic, partial curve]	–
CCCCCn1c(=O)[nH]c2cc(C(=O)Nc3ccc(F)cc3)ccc2c1=O	–	inactive: -2.16%
CNC(=O)c1sc(N2N=C3/C(=C/c4ccccc4)CCCC3C2c2ccccc2)nc1C (stereo not drawn)	inconclusive: 17.8 µM [cytotoxic, single point]	–
COc1ccc(CN(CC(O)COCc2ccccc2)S(=O)(=O)c2ccccc2Br)cc1OC (stereo not drawn)	inconclusive: 20.6 µM [cytotoxic, single point]	–
COc1ccc(N2CCN(C(=O)C(=O)c3cc(OC)c4ccccc4c3)CC2)cc1	inconclusive: 18.4 µM [cytotoxic, single point]	–
COc1ccc(Cl)cc1N1CC(C(=O)Nc2nccs2)CC1=O (stereo not drawn)	inconclusive: 14.6 µM [cytotoxic, single point]	–
O=c1ccn2c(n1)SC(c1ccccc1)C2 (stereo not drawn)	inconclusive: 0.0164 µM [rising, full curve, poor fit]	–
COc1ccc(C(CNC(=O)c2ccc(OCc3ccccc3)cc2)N2CCOCC2)cc1 (stereo not drawn)	–	inactive: 0.199%
O=C(Nc1cccc(-c2cccc(Cl)c2)c1)C1CCN(Cc2ccccn2)CC1	inconclusive: 25.9 µM [cytotoxic, single point]	–
CCC(=O)Oc1ccc(-c2nc3ccccc3c(=O)o2)cc1	–	inactive: 10.6%
O=[N+]([O-])c1cccc(Cn2cnc3c(=S)nc[nH]c32)c1	inconclusive: 2.06 µM [rising, partial curve, poor fit]	–
O=C(Nc1cccc2c1CCCC2)c1ccc(Cl)c([N+](=O)[O-])c1	inconclusive: 29.1 µM [cytotoxic, single point]	–
Oc1ccc(Br)cc1-c1cc(-c2ccccc2F)[nH]n1	inconclusive: 18.4 µM [cytotoxic, single point]	–
COc1ccc(OCC(=O)Nc2ccc(N3CCN(C(=O)c4ccccc4C)CC3)cc2)cc1	–	inactive: -12.2%
CCNc1nc(NC(C)C)nc(Oc2ccc(OCCOc3ccc(C)cc3)nn2)n1	–	inactive: -13.3%
C(=C\c1ccccc1)/C=N/Nc1nc(N2CCCCC2)nc(N2CCCCC2)n1	inconclusive: 29.1 µM [cytotoxic, single point]	–
CN(C(=S)Nc1ccc(F)cc1)C(c1ccccc1)c1ccccc1	inconclusive: 29.1 µM [cytotoxic, single point]	–
CC1=C(C(=O)N(C(C)C)C(C)C)CC(CC(=O)NCc2cccs2)C(=O)N1Cc1ccc(C(C)(C)C)cc1 (stereo not drawn)	inconclusive: 29.1 µM [cytotoxic, single point]	–
N=c1c(C(=O)NCC2CCCO2)cc2c(=O)n3ccccc3nc2n1Cc1ccccc1Cl (stereo not drawn)	inconclusive: 7.31 µM [cytotoxic, partial curve, poor fit]	–
O=c1c2sc3ccccc3c2n(Cc2ccccc2F)c(=O)n1CCc1ccccc1	–	inactive: 11.1%

Three entries from above, as a markdown table.

| Structure (SMILES) | Potency | activity change, negative = cytotoxic |
| --- | --- | --- |
| O=C(Nc1cccc2c1CCCC2)c1ccc(Cl)c([N+](=O)[O-])c1 | inconclusive: 29.1 µM [cytotoxic, single point] | – |
| Oc1ccc(Br)cc1-c1cc(-c2ccccc2F)[nH]n1 | inconclusive: 18.4 µM [cytotoxic, single point] | – |
| COc1ccc(OCC(=O)Nc2ccc(N3CCN(C(=O)c4ccccc4C)CC3)cc2)cc1 | – | inactive: -12.2% |
